# From PubChem BioAssay AID1259415 (National Center for Advancing Translational Sciences (NCATS), 2018)
# Screen size: about 410,000 compounds; about 18,000 (4.4%) were called active. The shares of active, inactive and inconclusive entries below differ from those in the screen. Cut-off read from the data, not from the text of the source: active = activity change below about -60%; inconclusive = no clear call, values can overlap the other calls; inactive = above about -39%.
# Experiment: qHTS Assay for inhibitors of the human cytomegalovirus (HCMV)
# Conditions: HFF cells, HCMV-luciferase reporter, 72 h; at 57.5 µM; active compounds read low
# Description: NCGC Assay Overview: Infection with human cytomegalovirus (HCMV) continues to pose significant threats for pregnant women and immunocompromised hosts. HCMV causes serious morbidity and mortality in transplant recipients, and congenital HCMV is the leading infectious cause of mental retardation and deafness in children. In the 1990s, the annual costs associated with the disease burden of congenital CMV were estimated at around $2 billion. A HCMV vaccine is not available yet and HCMV therapies result in intolerable side effects and emergence of drug resistant viruses. […] Towards this goal we have developed and characterized a luciferase HCMV reporter that was initially used in 96 well plates and then optimized to 1536-well plates for utilization in screening of the MLSMR collection, the NGCG diversity collection and the NCGC Pharmaceutical Collection of approved and investigational drugs.
# NCGC Assay Protocol Summary:
# This is a cell-based assay for HCMV inhibition in HFFs cells. The screening used 2 compound doses and the HCMV-luciferase at MOI of 1 PFU/cell. Cells were treated and infected with HCMV. At 72 h post infection cell lysates were collected and luciferase activity was determined using the Glomax-Multi + Detection System (Promega, Madison, WI). Data were normalized to the controls for basal activity (buffer only) and known HCMV inhibitors Salinmoycin.
# 1536-well assay protocol for the assay:
# (1) Add 3 ul CMV/HFF cell culture. 1000 cells/well in DMEM nirmal media.
# (2) Incubate 16 hr at 37C.
# (3) Add 23 nl control compound, 10uM of Salinomycin.
# (4) Add 23 nl compounds in DMSO solution.
# (5) Add 3 ul CMV suspension. Final 1 puf/ul, Virus stock 2000pfu/ul
# (6) Incubate 72 hrs at 37C.
# (7) Add 4 ul OneGlo Luc Reagent.
# (8) Incubate 5 min at room temperature.
# % is set by controls: 0 for no effect and ±100 for the full control effect.
row,SMILES,"activity change, negative = inhibition"
1,O=S(=O)(c1ccccc1Oc1ccc(Cl)cc1Cl)N1CCCCC1,inactive: 16.8%
2,O=C(c1ccco1)N1CCN(C(=S)Nc2ccc(F)c(Cl)c2)CC1,inconclusive: -47.6%
3,CC12CCC(C(=O)N(NC(=O)c3ccccc3O)C1=O)C2(C)C (stereo not drawn),active: -81.2%
4,CCc1nc2ccc(C(=O)NCCOc3ccc(OC)cc3)cn2c1N(C)CCCc1ccccc1,inactive: -29.9%
5,CCOC(=O)C1=C(O)/C(=C/c2cc(OC)c(OC)c(OC)c2)SC1=Nc1ccc(OC)cc1,inconclusive: -50.5%
6,O=C(NC1CCCCC1)C(c1cccnc1)N(C(=O)c1csnn1)c1ccccc1 (stereo not drawn),inactive: 5.64%
7,CCN1CCN(C(=S)c2ccc(Br)cc2)CC1,inactive: 47.5%
8,CCN(CC)CCNC(=S)NC(=O)c1cn(-c2ccccc2)nc1-c1ccc(OC)cc1,inconclusive: -48.8%
9,CCC(CC)Nc1ccc(C(CC(N)=O)NC(=O)c2ccccc2)cc1[N+](=O)[O-] (stereo not drawn),inconclusive: -53.1%
10,Cn1c(=O)c2c(nc(Oc3ccc4ccccc4c3)n2C)n(C)c1=O,active: -76.2%
11,CC(=O)N1CCc2cc(NC(=O)C3(C)CCN3CCc3ccccc3)ccc21 (stereo not drawn),inconclusive: -49.2%
12,CCO[C@@H]1OC(C(=O)N2CCOCC2)=C[C@H](C(C)(C)C)[C@H]1CCCO,inconclusive: -42.2%
13,CCCCN1CC(COCc2ccccc2)Oc2ccccc2S1(=O)=O (stereo not drawn),inactive: -18.3%
14,CCc1cc(Cn2nc(-c3ccccc3)cc2C(=O)NCc2ccccc2OC)on1,inactive: 69.6%
15,Cc1cc(C)cc(NC(=S)/N=C(\N)Nc2nc(C)c3ccccc3n2)c1,active: -79.1%
16,NS(=O)(=O)c1cccc(NC(=O)COc2ccc([N+](=O)[O-])cc2)c1,inconclusive: -51.7%
17,Cc1ccc(/C=C2\CCC(C3CCCC3)C2=O)cc1 (stereo not drawn),inconclusive: -58.7%
18,Cc1ccc(NC(=S)/N=C(\N)Nc2nc(C)c3cc(C)ccc3n2)c(C)c1,active: -86.3%
19,O=C(NCc1ccco1)[C@@H]1CSC2c3ccccc3C(=O)N21 (stereo partly drawn),inactive: -18.1%
20,Nc1n[nH]c(CO)n1,inactive: -24%
21,N/N=C(\c1ccccc1)c1cc(Br)ccc1N,inconclusive: -41.2%
22,COc1ccc(C2=Nc3ccccc3OC2)cc1,inactive: 8.31%

row,SMILES,"activity change, negative = inhibition"
1,CCOc1cc2[nH]c(=S)n(CCc3ccc(OC)c(OC)c3)c(=O)c2cc1OCC,inconclusive: -53.2%
2,CCOc1cc(CNc2ccc3[nH]c(=O)[nH]c3c2)ccc1OCC(=O)NC(C)(C)C,inconclusive: -45.4%
3,Cc1cc(Br)cc2c(C(=O)Nc3c(C)n(C)n(-c4ccccc4)c3=O)cc(-c3cccs3)nc12,active: -62.9%
4,COc1cc(-c2ccc(NC(=O)NC3CC3)c(OC)c2)ccc1NC(=O)NC1CC1,active: -77.3%
5,CCc1noc(C)c1C(=O)Nc1cc(S(=O)(=O)N2CCOCC2)ccc1OCC(F)(F)F,inactive: -14%
6,CC(=O)c1ccccc1OCC(O)CN1CCN(CCN2C(=O)c3cccc4cccc(c34)C2=O)CC1 (stereo not drawn),active: -64.5%
7,CCOc1ccc(S(=O)(=O)NN=C2CCN(C(C)=O)CC2)cc1,inconclusive: -40.1%
8,CN(c1ccccc1)S(=O)(=O)c1ccc(Cl)c(C(=O)OCC(=O)N2CCOCC2)c1,inconclusive: -44.4%
9,Cc1ccc(S(=O)(=O)N2CCN(C(=O)C3CC(=O)N(c4ccc5c(c4)OCCO5)C3)CC2)cc1 (stereo not drawn),inconclusive: -49.7%
10,CSc1nc(C)c(C(=O)Nc2ccccc2)c(-c2ccco2)c1C#N,inconclusive: -55.9%
11,O=C(NCC(c1ccc2c(c1)OCO2)N1CCN(c2ccc(F)cc2)CC1)c1cccc([N+](=O)[O-])c1 (stereo not drawn),inconclusive: -52.2%
12,Cc1nnc(SCc2ccc(C(=O)Nc3cc(Cl)ccc3C)cc2)s1,inconclusive: -44.4%
13,CCOC(=O)N1CCN(C(=O)COc2cccc3c2CCN(Cc2cccc(C)c2)C3=O)CC1,inconclusive: -49.1%
14,O=C(Cc1ccc(Cl)cc1)Nc1ncccn1,inconclusive: -41.2%
15,CCc1ccc(NC(=O)C2CCCN(c3nn4cc(-c5ccc(OC)cc5)nc4s3)C2)cc1 (stereo not drawn),inconclusive: 0%
16,CNS(=O)(=O)c1ccc(NC(=O)c2cnn3c(C(F)F)cc(-c4ccccc4)nc23)cc1,inconclusive: -54.4%
17,Cc1ccccc1CN1CCN(Cc2ccccc2)CC1,inactive: -19.7%
18,Cc1ccc2c(=O)n3c(nc2c1)C(Cc1ccc(O)cc1)NC(=O)c1cc2ccccc2cc1-3 (stereo not drawn),active: -65.5%
19,O=C(Nc1ccccc1)N1CCN(CCc2ccccc2)CC1,inconclusive: -51.7%
20,CC1(C(=O)NCc2cccs2)Cc2c(-c3cccc(C(F)(F)F)c3)ccnc2O1 (stereo not drawn),inconclusive: -42.3%
21,CCOc1cc(CN2CCN(C(=O)c3cccc4ccccc34)CC2)ccc1OC,inactive: 2.94%

# Some values from above.
# activity change, negative = inhibition with CCOC(=O)N1CCN(C(=O)COc2cccc3c2CCN(Cc2cccc(C)c2)C3=O)CC1 is entered as inconclusive: -49.1%
# activity change, negative = inhibition with CC(=O)c1ccccc1OCC(O)CN1CCN(CCN2C(=O)c3cccc4cccc(c34)C2=O)CC1 (stereo not drawn) is entered as active: -64.5%
# activity change, negative = inhibition with CCc1noc(C)c1C(=O)Nc1cc(S(=O)(=O)N2CCOCC2)ccc1OCC(F)(F)F is entered as inactive: -14%
# activity change, negative = inhibition with Cc1ccc(S(=O)(=O)N2CCN(C(=O)C3CC(=O)N(c4ccc5c(c4)OCCO5)C3)CC2)cc1 (stereo not drawn) is entered as inconclusive: -49.7%
